No constants are given. Whether binding was seen depends on the method and setting. A result given as binding can be weak or reduced; the word gives no strength. Where a sequence is shown, tags or fusion partners need not be part of it.
Tests used:
[1] = biological target: Necl4 expressed on transfected COS-7 cells (pC3.1-Necl4) (mouse/rat (chimeric)); assay: Fc-fusion binding to transfected COS-7 cells, used to show expression (insets of FIG. 4A)
[2] = biological target: Necl1 expressed on transfected COS-7 cells (pC3-Necl1) (rat) (UniProt Q1WIM3); assay: Fc-fusion binding to transfected COS-7 cells, fluorescence microscopy
[3] = biological target: Necl3 expressed on transfected COS-7 cells (pC3.1-Necl3-myc/his) (mouse) (UniProt Q8BLQ9); assay: as above
[4] = biological target: Necl4 expressed on transfected COS-7 cells (pC3.1-Necl4) (mouse/rat (chimeric)); assay: as above

Chains of the proteins cited; added tags and fusions are not shown. Lines headed by an entry give the natural chain unless they say otherwise; changes in a name come on top.
UniProt Q1WIM3: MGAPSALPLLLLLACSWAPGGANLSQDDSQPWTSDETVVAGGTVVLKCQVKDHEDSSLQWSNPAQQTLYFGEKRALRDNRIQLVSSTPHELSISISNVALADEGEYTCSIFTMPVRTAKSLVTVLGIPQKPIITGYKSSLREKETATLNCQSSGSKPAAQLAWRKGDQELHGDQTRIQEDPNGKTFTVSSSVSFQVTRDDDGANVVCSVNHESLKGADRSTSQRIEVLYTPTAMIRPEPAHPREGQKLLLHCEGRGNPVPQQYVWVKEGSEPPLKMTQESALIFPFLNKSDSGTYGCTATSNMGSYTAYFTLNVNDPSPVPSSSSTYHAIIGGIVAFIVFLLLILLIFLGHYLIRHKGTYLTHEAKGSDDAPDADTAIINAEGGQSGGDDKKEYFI
UniProt Q8BLQ9: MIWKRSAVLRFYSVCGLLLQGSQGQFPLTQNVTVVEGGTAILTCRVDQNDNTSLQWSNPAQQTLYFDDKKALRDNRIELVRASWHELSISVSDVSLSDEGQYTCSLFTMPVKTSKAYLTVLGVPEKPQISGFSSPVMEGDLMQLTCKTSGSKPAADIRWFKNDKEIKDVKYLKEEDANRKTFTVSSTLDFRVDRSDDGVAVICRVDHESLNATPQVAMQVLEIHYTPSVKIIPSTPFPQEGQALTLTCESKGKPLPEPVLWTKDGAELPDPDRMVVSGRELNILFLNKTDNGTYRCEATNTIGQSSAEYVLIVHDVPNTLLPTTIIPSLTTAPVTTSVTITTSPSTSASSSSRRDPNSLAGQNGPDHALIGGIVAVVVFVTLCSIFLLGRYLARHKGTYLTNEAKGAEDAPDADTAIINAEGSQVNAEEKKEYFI

Measured: binding

B1: Necl1-Fc (extracellular domain of Necl1 fused to the constant region of human IgG1) (Fc fusion)
chain: NLSQDGYWQEQDLELGTPAPLEEALSSTVWSNPDLLASQDSQPWTSDETVVAGGTVVLKCQVKDHEDSSLQWSNPAQQTLYFGEKRALRDNRIQLVSSTPHELSISISNVALADEGEYTCSIFTMPVRTAKSLVTVLGIPQKPIITGYKSSLREKETATLNCQSSGSKPAAQLAWRKGDQELHGDQTRIQEDPNGKTFTVSSSVSFQVTRDDDGANVVCSVNHESLKGADRSTSQRIEVLYTPTAMIRPEPAHPREGQKLLLHCEGRGNPVPQQYVWVKEGSEPPLKMTQESALIFPFLNKSDSGTYGCTATSNMGSYTAYFTLNVNDPSPVPSSSST
notes: Produced in HEK 293T cells; also called soluble Necl1; Nel1-Fc; not shown: constant region (Fc) of human IgG1
binds: [1] | [2] | [3] | [4]

Source: patent US20100150924A1 (published 2010)
